Laboratory results as given in patent US20110190249A1, “THERAPEUTIC METHODS AND USES OF SAPOGENINS AND THEIR DERIVATIVES” (PHYTOPHARM PLC, priority 2002, published 2011).
For at least one compound, name, drawing or mass did not settle the structure.

Tested on: muscarinic acetylcholine receptor (m)
Assay: Restoration of m acetylcholine receptor density in CHO cells transfected with a vector for the m receptor
Assay type: cell-based
Set-up: key to the marks not given beside the values
Conditions: 10 microM

Which “Activity (restoration of m acetylcholine receptor density)” value does the source give for `CCOC(=O)OC1CCC2(C)C(CCC3C2CCC2(C)C3CC3OC4(CCC(C)CO4)C(C)C32)C1` (stereo not shown) [epismilagenin cathylate] here?
The value was “++”.
